Test results from the supplement of paper PMC10849652.
This is one part of the list.

The chains behind the UniProt entries cited, without tags or fusion partners. Where a name states a change or a piece, a line headed by the entry shows the natural chain unless it says otherwise.
UniProt Q5W111: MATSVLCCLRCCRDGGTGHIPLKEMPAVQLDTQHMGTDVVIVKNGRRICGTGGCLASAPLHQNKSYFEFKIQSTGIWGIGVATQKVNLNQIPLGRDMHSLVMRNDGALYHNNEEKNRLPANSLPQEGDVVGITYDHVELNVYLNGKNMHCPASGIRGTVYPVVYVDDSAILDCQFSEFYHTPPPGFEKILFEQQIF
UniProt Q8IYB3: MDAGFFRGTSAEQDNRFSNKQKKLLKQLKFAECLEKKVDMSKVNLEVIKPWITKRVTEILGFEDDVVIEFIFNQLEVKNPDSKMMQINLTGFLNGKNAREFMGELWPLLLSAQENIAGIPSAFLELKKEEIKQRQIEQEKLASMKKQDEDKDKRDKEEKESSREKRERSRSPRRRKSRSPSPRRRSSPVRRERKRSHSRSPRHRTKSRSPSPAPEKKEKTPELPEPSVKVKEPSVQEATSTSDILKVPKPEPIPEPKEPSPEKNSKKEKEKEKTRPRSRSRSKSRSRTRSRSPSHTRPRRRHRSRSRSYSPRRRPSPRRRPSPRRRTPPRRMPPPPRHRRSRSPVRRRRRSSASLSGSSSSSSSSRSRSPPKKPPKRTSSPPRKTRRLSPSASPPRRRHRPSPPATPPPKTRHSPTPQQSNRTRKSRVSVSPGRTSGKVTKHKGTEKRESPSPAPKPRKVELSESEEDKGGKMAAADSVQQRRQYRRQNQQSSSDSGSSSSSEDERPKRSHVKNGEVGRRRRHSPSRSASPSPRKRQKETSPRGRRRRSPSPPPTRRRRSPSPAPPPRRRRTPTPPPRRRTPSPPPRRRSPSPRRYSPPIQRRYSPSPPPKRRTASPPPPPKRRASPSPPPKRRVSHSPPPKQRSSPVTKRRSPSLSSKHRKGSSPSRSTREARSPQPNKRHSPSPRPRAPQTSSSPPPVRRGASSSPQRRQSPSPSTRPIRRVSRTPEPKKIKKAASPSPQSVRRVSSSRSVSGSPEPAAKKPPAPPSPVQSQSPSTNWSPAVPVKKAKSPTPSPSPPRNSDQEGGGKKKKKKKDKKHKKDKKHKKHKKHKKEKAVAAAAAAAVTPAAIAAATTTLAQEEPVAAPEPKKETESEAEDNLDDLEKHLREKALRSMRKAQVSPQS
UniProt Q08170: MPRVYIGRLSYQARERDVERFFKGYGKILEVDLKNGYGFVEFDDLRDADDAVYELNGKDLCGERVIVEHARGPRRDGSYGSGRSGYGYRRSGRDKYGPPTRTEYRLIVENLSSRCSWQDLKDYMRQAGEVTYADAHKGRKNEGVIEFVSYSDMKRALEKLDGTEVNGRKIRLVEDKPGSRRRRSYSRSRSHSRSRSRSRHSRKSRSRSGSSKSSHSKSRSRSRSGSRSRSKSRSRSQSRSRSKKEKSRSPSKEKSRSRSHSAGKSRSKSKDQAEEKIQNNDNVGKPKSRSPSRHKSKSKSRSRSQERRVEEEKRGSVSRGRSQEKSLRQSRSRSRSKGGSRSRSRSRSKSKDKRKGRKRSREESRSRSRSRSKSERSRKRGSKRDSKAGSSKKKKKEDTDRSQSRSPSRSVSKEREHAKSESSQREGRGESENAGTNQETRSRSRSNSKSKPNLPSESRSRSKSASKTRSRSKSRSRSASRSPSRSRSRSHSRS
UniProt Q9UBP0: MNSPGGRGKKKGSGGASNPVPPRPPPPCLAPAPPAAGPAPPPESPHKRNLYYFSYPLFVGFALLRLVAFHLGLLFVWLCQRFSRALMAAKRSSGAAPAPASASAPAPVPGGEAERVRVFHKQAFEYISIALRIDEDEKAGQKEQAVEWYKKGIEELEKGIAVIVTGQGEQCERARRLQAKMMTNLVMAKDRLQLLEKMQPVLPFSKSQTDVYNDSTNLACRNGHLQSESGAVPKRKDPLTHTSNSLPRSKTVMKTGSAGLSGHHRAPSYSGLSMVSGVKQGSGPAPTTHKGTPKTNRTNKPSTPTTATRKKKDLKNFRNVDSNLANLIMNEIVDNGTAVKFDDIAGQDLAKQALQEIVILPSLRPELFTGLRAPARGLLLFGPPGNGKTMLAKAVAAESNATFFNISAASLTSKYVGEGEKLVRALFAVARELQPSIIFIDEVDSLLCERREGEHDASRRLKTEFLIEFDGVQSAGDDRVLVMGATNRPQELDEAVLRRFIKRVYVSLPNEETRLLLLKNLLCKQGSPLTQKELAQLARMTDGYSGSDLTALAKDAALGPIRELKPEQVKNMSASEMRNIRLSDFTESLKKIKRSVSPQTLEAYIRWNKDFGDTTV
UniProt Q15005: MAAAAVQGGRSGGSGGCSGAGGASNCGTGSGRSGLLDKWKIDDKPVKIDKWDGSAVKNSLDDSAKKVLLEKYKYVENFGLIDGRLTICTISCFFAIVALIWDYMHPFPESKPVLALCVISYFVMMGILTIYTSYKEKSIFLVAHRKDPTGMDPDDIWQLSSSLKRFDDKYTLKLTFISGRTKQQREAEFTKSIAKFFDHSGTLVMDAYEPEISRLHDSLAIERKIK
UniProt P19623: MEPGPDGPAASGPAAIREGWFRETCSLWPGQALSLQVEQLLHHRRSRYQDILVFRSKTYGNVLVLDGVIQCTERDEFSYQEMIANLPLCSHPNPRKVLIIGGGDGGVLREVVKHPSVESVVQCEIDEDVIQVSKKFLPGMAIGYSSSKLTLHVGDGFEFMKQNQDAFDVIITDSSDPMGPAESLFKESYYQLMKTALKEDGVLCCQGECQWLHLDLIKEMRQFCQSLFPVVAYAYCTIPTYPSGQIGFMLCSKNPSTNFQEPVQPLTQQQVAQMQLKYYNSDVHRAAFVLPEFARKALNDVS
UniProt Q8TCT7: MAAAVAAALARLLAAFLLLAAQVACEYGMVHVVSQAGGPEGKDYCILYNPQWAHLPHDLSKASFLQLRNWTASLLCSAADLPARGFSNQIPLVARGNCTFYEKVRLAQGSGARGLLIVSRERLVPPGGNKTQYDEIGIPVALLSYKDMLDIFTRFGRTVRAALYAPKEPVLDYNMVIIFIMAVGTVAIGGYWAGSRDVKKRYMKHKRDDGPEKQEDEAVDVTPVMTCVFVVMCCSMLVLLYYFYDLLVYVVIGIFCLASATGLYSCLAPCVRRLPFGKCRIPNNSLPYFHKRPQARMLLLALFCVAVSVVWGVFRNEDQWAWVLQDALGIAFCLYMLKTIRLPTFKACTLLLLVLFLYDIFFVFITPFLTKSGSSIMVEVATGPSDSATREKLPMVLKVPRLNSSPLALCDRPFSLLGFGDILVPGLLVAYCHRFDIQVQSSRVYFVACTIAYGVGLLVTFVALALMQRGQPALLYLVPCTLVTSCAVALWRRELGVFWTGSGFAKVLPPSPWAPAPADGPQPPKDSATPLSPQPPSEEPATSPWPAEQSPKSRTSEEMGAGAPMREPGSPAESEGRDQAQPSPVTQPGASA
UniProt Q8NB90: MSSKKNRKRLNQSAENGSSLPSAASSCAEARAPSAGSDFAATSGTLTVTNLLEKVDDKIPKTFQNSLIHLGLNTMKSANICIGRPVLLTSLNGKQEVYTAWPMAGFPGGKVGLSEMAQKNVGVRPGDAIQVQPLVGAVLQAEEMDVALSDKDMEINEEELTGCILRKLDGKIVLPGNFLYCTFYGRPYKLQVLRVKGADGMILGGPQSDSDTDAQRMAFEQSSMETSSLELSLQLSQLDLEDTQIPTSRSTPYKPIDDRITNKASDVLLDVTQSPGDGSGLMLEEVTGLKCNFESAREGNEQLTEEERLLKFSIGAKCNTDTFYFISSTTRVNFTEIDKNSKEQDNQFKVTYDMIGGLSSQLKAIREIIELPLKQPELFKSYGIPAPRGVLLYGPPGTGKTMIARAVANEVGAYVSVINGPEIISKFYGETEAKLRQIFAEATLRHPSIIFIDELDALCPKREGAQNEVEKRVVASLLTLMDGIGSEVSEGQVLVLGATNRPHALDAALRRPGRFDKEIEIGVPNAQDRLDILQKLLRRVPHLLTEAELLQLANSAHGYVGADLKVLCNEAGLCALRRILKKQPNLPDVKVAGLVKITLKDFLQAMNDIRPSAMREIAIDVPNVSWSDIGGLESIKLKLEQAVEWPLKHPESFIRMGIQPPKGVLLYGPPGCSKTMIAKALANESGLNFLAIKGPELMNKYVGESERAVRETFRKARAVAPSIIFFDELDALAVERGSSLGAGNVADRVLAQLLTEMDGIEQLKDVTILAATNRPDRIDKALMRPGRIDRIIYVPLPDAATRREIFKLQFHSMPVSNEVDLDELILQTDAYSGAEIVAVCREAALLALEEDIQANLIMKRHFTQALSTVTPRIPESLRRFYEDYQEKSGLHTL
UniProt Q08AE8, whole entry, looked up: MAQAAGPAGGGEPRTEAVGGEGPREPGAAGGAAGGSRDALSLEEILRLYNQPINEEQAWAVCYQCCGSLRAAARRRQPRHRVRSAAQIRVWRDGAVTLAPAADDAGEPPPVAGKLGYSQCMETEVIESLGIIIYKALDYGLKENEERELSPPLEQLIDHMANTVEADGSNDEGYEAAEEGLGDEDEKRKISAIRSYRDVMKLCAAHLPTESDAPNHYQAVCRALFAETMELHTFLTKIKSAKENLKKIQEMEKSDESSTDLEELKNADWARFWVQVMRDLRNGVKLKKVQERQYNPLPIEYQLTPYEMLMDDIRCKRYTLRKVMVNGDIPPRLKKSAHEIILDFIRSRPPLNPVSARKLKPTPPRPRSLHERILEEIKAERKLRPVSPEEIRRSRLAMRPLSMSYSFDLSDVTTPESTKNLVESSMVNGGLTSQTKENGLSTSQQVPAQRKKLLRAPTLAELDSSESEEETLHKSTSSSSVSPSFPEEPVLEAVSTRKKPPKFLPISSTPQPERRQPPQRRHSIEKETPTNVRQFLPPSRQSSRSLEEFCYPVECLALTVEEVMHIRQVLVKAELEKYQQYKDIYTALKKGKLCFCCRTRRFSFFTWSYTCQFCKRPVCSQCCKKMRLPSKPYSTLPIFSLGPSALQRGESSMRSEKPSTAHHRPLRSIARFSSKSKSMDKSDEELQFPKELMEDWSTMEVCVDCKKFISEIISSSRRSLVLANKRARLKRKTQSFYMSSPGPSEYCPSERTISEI
UniProt Q04837: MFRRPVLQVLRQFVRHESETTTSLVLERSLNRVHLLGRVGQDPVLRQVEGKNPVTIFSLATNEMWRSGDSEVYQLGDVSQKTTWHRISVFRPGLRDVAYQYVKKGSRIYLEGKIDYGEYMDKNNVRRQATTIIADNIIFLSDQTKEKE
UniProt P51692: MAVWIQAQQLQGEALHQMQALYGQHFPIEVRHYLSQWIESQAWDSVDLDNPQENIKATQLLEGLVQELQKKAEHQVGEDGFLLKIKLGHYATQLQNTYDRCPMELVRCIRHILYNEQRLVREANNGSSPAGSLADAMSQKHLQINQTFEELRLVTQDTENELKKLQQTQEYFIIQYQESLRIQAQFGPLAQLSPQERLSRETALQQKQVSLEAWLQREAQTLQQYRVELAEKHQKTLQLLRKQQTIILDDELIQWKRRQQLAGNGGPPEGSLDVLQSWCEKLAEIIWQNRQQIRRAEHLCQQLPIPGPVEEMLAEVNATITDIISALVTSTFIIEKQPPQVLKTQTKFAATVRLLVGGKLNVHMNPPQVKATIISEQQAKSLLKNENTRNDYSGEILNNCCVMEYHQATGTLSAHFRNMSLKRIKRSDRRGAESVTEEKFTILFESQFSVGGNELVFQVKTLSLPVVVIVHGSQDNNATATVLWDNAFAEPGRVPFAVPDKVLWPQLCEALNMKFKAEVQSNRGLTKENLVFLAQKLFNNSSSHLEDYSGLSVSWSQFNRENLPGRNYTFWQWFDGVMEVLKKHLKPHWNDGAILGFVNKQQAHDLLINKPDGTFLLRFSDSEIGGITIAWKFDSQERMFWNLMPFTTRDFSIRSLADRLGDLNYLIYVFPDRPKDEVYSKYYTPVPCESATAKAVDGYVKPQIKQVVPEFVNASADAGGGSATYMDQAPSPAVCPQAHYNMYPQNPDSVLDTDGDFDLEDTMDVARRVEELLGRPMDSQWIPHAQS
UniProt O15270: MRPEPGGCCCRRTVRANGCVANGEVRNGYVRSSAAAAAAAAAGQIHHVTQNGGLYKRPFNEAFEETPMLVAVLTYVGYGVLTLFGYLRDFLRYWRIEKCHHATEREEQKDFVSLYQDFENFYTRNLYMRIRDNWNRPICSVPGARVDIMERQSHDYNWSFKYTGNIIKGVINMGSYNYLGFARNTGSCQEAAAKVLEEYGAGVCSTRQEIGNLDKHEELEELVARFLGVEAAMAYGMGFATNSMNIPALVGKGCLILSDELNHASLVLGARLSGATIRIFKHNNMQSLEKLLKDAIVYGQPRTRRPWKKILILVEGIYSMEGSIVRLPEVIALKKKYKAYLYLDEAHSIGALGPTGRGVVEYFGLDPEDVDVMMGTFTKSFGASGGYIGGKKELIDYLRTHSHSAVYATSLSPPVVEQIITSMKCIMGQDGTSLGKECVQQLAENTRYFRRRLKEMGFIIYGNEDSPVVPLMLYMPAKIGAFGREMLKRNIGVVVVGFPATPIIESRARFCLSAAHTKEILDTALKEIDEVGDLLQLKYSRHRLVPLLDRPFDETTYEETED

Experiments:
Test in all cases: log2 fold change, soluble protein after heating vs DMSO (PISA); higher = thermal stabilisation; K562 cells, 10 uM, 30 min; active = over 0.2 and 3.5 SD of the protein, either way, in both replicates (recomputed)
erlotinib = compound: C#Cc1cccc(Nc2ncnc3cc(OCCOC)c(OCCOC)cc23)c1 [erlotinib]
Method in brief: (§1)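 Soluble protein was defined as the supernatant after 21,000xg for 90 min. It came from K562 cells at 2×10^6 cells/mL given 10 μM compound for 30 min, heated in aliquots for 3 min across 48°C-58°C, pooled, and extracted in PBS with 0.5% NP-40 at 4°C, and was quantified by TMTpro 16plex LC-MS/MS with equalised channel sums. Thermal stability against control samples, from duplicates, is reported as log2 fold change.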

[1] = compound: C/C(=N\NC(=O)C1=CC(=CC=C1)S(=O)(=O)N2CCOCC2)/C3=C(C=CC(=C3)Cl)O
Method in brief: as §1

[2] = compound: C1=CC(=C(C=C1Cl)C2=NC3=NC=CN=C3C(=N2)NC4=CC=NC=C4)F
Method in brief: as §1

[3] = compound: C1=CC(=CC=C1C2=NC3=C(N2)C=C(C=C3)C(=O)N)OC4=CC=C(C=C4)Cl
Method in brief: as §1

[4] = compound: C1=CC2=C(C=CC(=C2)/C=C\3/C(=O)NC(=NCC4=CC=CS4)S3)N=C1
Method in brief: as §1

[5] = compound: C1=CC2=NC=CN=C2C=C1/C=C/3\C(=O)NC(=O)S3
Method in brief: as §1

[6] = compound: C1=CC=C(C=C1)C2=NC(=C(N2)C3=CC=NC=C3)C4=CC(=C(C=C4)Cl)O
Method in brief: as §1

[7] = compound: C1=CC=C2C(=C1)C3=NNC4=CC=CC(=C43)C2=O
Method in brief: as §1

[8] = compound: C1CCN(C1)C(=O)NC2=CC=CC(=C2)NC3=NC=C(C(=N3)NCCC4=CN=CN4)Br
Method in brief: as §1

[9] = compound: C1CN(CCC1(CC2=CC=C(C=C2)Cl)N)C3=NC=NC4=C3C=CN4
Method in brief: as §1

| Target | log2 fold change (erlotinib) | log2 fold change [1] | log2 fold change [2] | log2 fold change [3] | log2 fold change [4] | log2 fold change [5] | log2 fold change [6] | log2 fold change [7] | log2 fold change [8] | log2 fold change [9] |
| --- | --- | --- | --- | --- | --- | --- | --- | --- | --- | --- |
| SPRYD7 (UniProt Q5W111) | inactive: 0.043 | inactive: -0.003 | inactive: -0.031 | inactive: -0.003 | inactive: 0.117 | inactive: 0.052 | inactive: -0.004 | inactive: -0.004 | inactive: 0.059 | inactive: 0.016 |
| SREK1IP1 (UniProt Q8N9Q2) | inactive: -0.088 | inactive: -0.11 | inactive: -0.198 | inactive: -0.036 | inactive: -0.015 | inactive: 0.019 | inactive: -0.176 | inactive: -0.024 | inactive: 0.065 | inactive: 0.011 |
| SPG11 (UniProt Q96JI7) | inactive: 0.586 | inactive: 0.148 | inactive: -0.089 | inactive: -0.084 | inactive: 0.128 | inactive: -0.108 | inactive: -0.275 | inactive: -0.073 | inactive: 0.405 | inactive: -0.002 |
| STAT6 (UniProt P42226) | inactive: 0.082 | inactive: 0.061 | inactive: 0.12 | inactive: 0.018 | inactive: 0.022 | inactive: -0.032 | inactive: 0.025 | inactive: -0.026 | inactive: -0.063 | inactive: 0.04 |
| STK24 (UniProt Q9Y6E0) | inactive: -0.001 | inactive: 0.031 | inactive: 0.021 | inactive: -0.009 | inactive: -0.006 | inactive: 0.008 | inactive: -0.021 | inactive: -0.03 | inactive: -0.001 | inactive: 0.044 |
| SRRM1 (UniProt Q8IYB3) | inactive: 0.019 | inactive: 0.025 | inactive: -0.202 | inactive: 0.132 | inactive: -0.113 | inactive: -0.04 | inactive: -0.115 | inactive: -0.013 | inactive: 0.069 | inactive: -0.139 |
| SRSF4 (UniProt Q08170) | inactive: -0.054 | inactive: 0.015 | inactive: -0.325 | inactive: 0.05 | inactive: -0.155 | inactive: -0.072 | inactive: -0.024 | inactive: -0.109 | inactive: 0.007 | inactive: -0.254 |
| SRFBP1 (UniProt Q8NEF9) | inactive: -0.256 | inactive: -0.082 | inactive: -0.114 | inactive: 0.039 | inactive: -0.03 | inactive: 0.104 | inactive: -0.08 | inactive: 0.082 | inactive: 0.069 | inactive: -0.065 |
| SPAST (UniProt Q9UBP0) | inactive: 0.139 | inactive: 0.129 | inactive: 0.032 | inactive: -0.046 | inactive: 0.06 | inactive: 0.028 | inactive: 0.007 | inactive: 0.064 | inactive: -0.048 | inactive: -0.004 |
| SPCS2 (UniProt Q15005) | inactive: -0.022 | inactive: 0.015 | inactive: 0.077 | inactive: -0.043 | inactive: 0.011 | inactive: 0.029 | inactive: -0.004 | inactive: -0.08 | inactive: -0.005 | inactive: 0.001 |
| SPG7 (UniProt Q9UQ90) | inactive: 0.03 | inactive: -0.02 | inactive: -0.028 | inactive: 0.002 | inactive: 0.074 | inactive: 0 | inactive: 0.003 | inactive: 0.016 | inactive: 0.016 | inactive: 0.03 |
| SPATA5L1 (UniProt Q9BVQ7) | inactive: 0.021 | inactive: -0.054 | inactive: -0.002 | inactive: 0.03 | inactive: 0.047 | inactive: 0.005 | inactive: 0.004 | inactive: -0.029 | inactive: -0.024 | inactive: 0.052 |
| SRM (UniProt P19623) | inactive: -0.006 | inactive: 0.038 | inactive: 0.001 | inactive: -0.016 | inactive: 0.025 | inactive: -0.013 | inactive: 0.025 | inactive: 0.005 | inactive: 0.009 | inactive: -0.015 |
| SRPRA (UniProt P08240) | inactive: -0.01 | inactive: 0.061 | inactive: 0.073 | inactive: 0.007 | inactive: 0.054 | inactive: -0.048 | inactive: 0.063 | inactive: 0.003 | inactive: 0.001 | inactive: 0.006 |
| SPPL2B (UniProt Q8TCT7) | inactive: 0.021 | inactive: -0.112 | inactive: -0.039 | inactive: 0.044 | inactive: 0.081 | inactive: 0.048 | inactive: 0.003 | inactive: -0.072 | inactive: -0.041 | inactive: 0.038 |
| SRSF7 (UniProt Q16629) | inactive: 0.083 | inactive: -0.043 | inactive: -0.292 | inactive: 0.063 | inactive: -0.154 | inactive: -0.032 | inactive: -0.135 | inactive: -0.037 | inactive: 0.084 | inactive: -0.063 |
| SPATA5 (UniProt Q8NB90) | inactive: -0.042 | inactive: -0.019 | inactive: -0.028 | inactive: -0.005 | inactive: 0.015 | inactive: 0.014 | inactive: -0.005 | inactive: 0 | inactive: 0.011 | inactive: 0.04 |
| SPIRE1 (UniProt Q08AE8) | inactive: 0.16 | inactive: -0.264 | active: -0.466 | inactive: -0.119 | inactive: 0.11 | inactive: -0.034 | inactive: 0.048 | inactive: -0.063 | inactive: 0.01 | inactive: 0.145 |
| ST13 (UniProt P50502) | inactive: -0.016 | inactive: 0.029 | inactive: 0.035 | inactive: 0.005 | inactive: 0.006 | inactive: 0.011 | inactive: 0.012 | inactive: 0.036 | inactive: 0.021 | inactive: 0 |
| STARD3 (UniProt Q14849) | inactive: -0.073 | inactive: 0.133 | inactive: -0.05 | inactive: 0.022 | inactive: -0.095 | inactive: 0.058 | inactive: -0.028 | inactive: 0.197 | inactive: 0.059 | inactive: 0.04 |
| SPC25 (UniProt Q9HBM1) | inactive: 0.037 | inactive: 0.074 | inactive: 0.057 | inactive: -0.051 | inactive: 0.069 | inactive: 0.062 | inactive: 0.064 | inactive: -0.034 | inactive: -0.022 | inactive: -0.048 |
| STAM2 (UniProt O75886) | inactive: -0.026 | inactive: 0.081 | inactive: 0.036 | inactive: -0.031 | inactive: 0.022 | inactive: 0.01 | inactive: 0.002 | inactive: -0.006 | inactive: -0.047 | inactive: -0.025 |
| SPTBN1 (UniProt Q01082) | inactive: 0.003 | inactive: 0.067 | inactive: -0.065 | inactive: 0.011 | inactive: 0.03 | inactive: 0.046 | inactive: 0.021 | inactive: -0.055 | inactive: -0.067 | inactive: -0.071 |
| SPINDOC (UniProt Q9BUA3) | inactive: -0.013 | inactive: -0.017 | inactive: -0.01 | inactive: -0.044 | inactive: 0.036 | inactive: 0.074 | inactive: -0.063 | inactive: -0.066 | inactive: -0.129 | inactive: 0.09 |
| SRP72 (UniProt O76094) | inactive: 0.044 | inactive: 0.105 | inactive: -0.072 | inactive: -0.054 | inactive: 0.066 | inactive: 0.001 | inactive: 0.005 | inactive: -0.052 | inactive: -0.005 | inactive: -0.194 |
| SPTAN1 isoform 2 (UniProt Q13813) | inactive: -0.006 | inactive: 0.036 | inactive: -0.026 | inactive: 0.055 | inactive: 0.005 | inactive: 0.049 | inactive: -0.028 | inactive: -0.041 | inactive: -0.014 | inactive: -0.083 |
| SSBP1 (UniProt Q04837) | inactive: -0.009 | inactive: -0.052 | inactive: -0.035 | inactive: -0.018 | inactive: 0.003 | inactive: 0.022 | inactive: -0.099 | inactive: 0.025 | inactive: 0.016 | inactive: -0.015 |
| STAT5B (UniProt P51692) | inactive: 0.027 | inactive: -0.148 | inactive: 0.035 | inactive: 0.071 | inactive: 0.028 | inactive: -0.013 | inactive: -0.007 | inactive: -0.061 | inactive: -0.077 | inactive: -0.013 |
| SSR3 isoform 2 (UniProt Q9UNL2) | inactive: 0.019 | inactive: 0.054 | inactive: -0.013 | inactive: -0.003 | inactive: -0.187 | inactive: 0.037 | inactive: 0.006 | inactive: 0.028 | inactive: -0.119 | inactive: -0.011 |
| SPTLC2 (UniProt O15270) | inactive: 0.032 | inactive: 0.033 | inactive: 0.038 | inactive: -0.018 | inactive: 0.04 | inactive: 0.017 | inactive: 0.018 | inactive: -0.012 | inactive: 0.007 | inactive: 0.053 |

Record cards, from the list above. Values in the order: log2 fold change (erlotinib) | log2 fold change [1] | log2 fold change [2] | log2 fold change [3] | log2 fold change [4] | log2 fold change [5] | log2 fold change [6] | log2 fold change [7] | log2 fold change [8] | log2 fold change [9]
SRSF4 (UniProt Q08170) in the list: inactive: -0.054 | inactive: 0.015 | inactive: -0.325 | inactive: 0.05 | inactive: -0.155 | inactive: -0.072 | inactive: -0.024 | inactive: -0.109 | inactive: 0.007 | inactive: -0.254
SPC25 (UniProt Q9HBM1) in the list: inactive: 0.037 | inactive: 0.074 | inactive: 0.057 | inactive: -0.051 | inactive: 0.069 | inactive: 0.062 | inactive: 0.064 | inactive: -0.034 | inactive: -0.022 | inactive: -0.048
